The other results are listed elsewhere or left out.

The first experiment deals with SARS-CoV-2 3'-UTR RNA. The experiment in a line: NMR binding call after quantification (hit when 2 of 3 NMR criteria are met) (binary (1 = binding, 0 = not binding)); higher = binding. The conditions noted are these: RNA concentration 10 µM; fragment concentration 200 µM; 293 K.
The compound `Cc1csc(CNC(=O)C2CCC2)n1` had an NMR binding call of 0.

With `CNC(=O)CN1CCNCC1`, the NMR binding call came out at 0.

`Cc1cccc(NC(=O)CN2CCOCC2)c1C`: the NMR binding call came to 0.

`O=C(Nc1ccc(F)cc1)Nc1ccc(F)cc1` gave an NMR binding call of 0.

Compound `COc1ccc(C(=O)Nc2ccccc2F)cc1` had an NMR binding call of 1.

With `O=C(c1c(F)cccc1F)N1CCCCCC1`, the NMR binding call was 0.

`Cc1ccc(NC(=O)C2CCCO2)nc1` (stereo not drawn): the NMR binding call is 0.

As to `CC(=O)Nc1ccc(F)c(C(=O)O)c1`, the NMR binding call stood at 0.

`Nc1ccccc1OCc1ccccc1` had an NMR binding call of 0.

`O=C(c1ccco1)N1CCN(C(=O)C2CC2)CC1`: the NMR binding call was 0.

`COc1ccc(C(=O)C2CCNCC2)cc1` registered an NMR binding call of 0.

The compound `Cc1nnc(CN2CCC=C(F)C2)s1` had an NMR binding call of 0.

The compound `NC(=O)c1ccc(OCc2ccccc2)cc1` showed an NMR binding call of 0.

Another experiment deals with SARS-CoV-2 3_SL1 RNA. The description is as above. The following applies: RNA concentration 10 µM; fragment concentration 200 µM; 293 K.
In turn, `CCS(=O)(=O)NCc1ccc2c(c1)OCO2` showed an NMR binding call of 0.

`Nc1ccc(S(=O)(=O)Nc2ccccn2)cc1` yielded an NMR binding call of 0.

With `Cc1cc(C(=O)NC(C)C)on1`, the NMR binding call turned out to be 0.

Turning to `Cc1ccsc1CNC(C)(C)CO`, the NMR binding call amounted to 0.

For the compound `Cc1nn(Cc2c(C)noc2C)c(=O)s1`, the NMR binding call came out at 0.

`CC(C)NC(=O)c1cc[nH]n1` had an NMR binding call of 0.

`CC(C)NC(=O)N(C)Cc1cnn(C)c1` had an NMR binding call of 0.

The compound `CC(C)N1CCCC(CO)C1` (stereo not drawn) gave an NMR binding call of 0.

`CC1COCCN1CCN` (stereo not drawn) gave an NMR binding call of 0.

`CC(C)(O)CNC1CCOCC1` yielded an NMR binding call of 0.

In turn, `CC(=O)NCC1(c2ccccc2)CCOCC1` yielded an NMR binding call of 0.

`CNC(=O)c1ccc(S(N)(=O)=O)cc1` came in with an NMR binding call of 0.

In turn, `CN(C)Cc1nc(C2(N)CCCC2)no1` came in with an NMR binding call of 0.

For the compound `CC(O)CNCc1c(Cl)cccc1Cl` (stereo not drawn), the NMR binding call turned out to be 0.

For the compound `O=C(Nc1ccc(O)cc1)N1CCOCC1`, the NMR binding call amounted to 0.

Consider `CC1CCCN(C(=O)CO)C1` (stereo not drawn), for which the NMR binding call was 0.

On to `CNc1ncc(C(F)(F)F)cc1Cl`, for which the NMR binding call is 0.

In the case of `O=C(NCc1ccco1)NC1CCCCC1`, the NMR binding call worked out at 0.

For the compound `CC(=O)Nc1ccc(CC(N)=O)cc1`, the NMR binding call came out at 0.

`NC(=O)N1CCN(C(=O)c2ccco2)CC1` yielded an NMR binding call of 0.

Compound `Cc1cnc(N2CCNCC2)s1.Cl.Cl` showed an NMR binding call of 0.

In turn, `O=C(c1c(F)cccc1F)N1CCCC1` returned an NMR binding call of 0.

In turn, `CC(Oc1ccc(-c2ccccc2)cc1)C(=O)O` (stereo not drawn) registered an NMR binding call of 0.

As to `Cl.O=C(O)CCN1CCCCC1`, the NMR binding call turned out to be 0.

Compound `CC(C)n1cc(C(=O)O)nn1` displayed an NMR binding call of 0.

For the compound `CN1CCN(c2ncccc2F)CC1=O`, the NMR binding call was 0.

On to `COc1cc(C(=O)O)cc(OC)c1OC`, for which the NMR binding call is 0.

The compound `Cc1csc(CNC(=O)C2CCC2)n1` showed an NMR binding call of 0.

On to `CNC(=O)CN1CCNCC1`, for which the NMR binding call stood at 0.

For `Cc1cccc(NC(=O)CN2CCOCC2)c1C`, the NMR binding call was determined as 0.

In turn, `O=C(Nc1ccc(F)cc1)Nc1ccc(F)cc1` displayed an NMR binding call of 0.

Take `COc1ccc(C(=O)Nc2ccccc2F)cc1`: the NMR binding call was determined as 0.

`O=C(c1c(F)cccc1F)N1CCCCCC1` displayed an NMR binding call of 0.

On to `Cc1ccc(NC(=O)C2CCCO2)nc1` (stereo not drawn), for which the NMR binding call worked out at 0.

For the compound `CC(=O)Nc1ccc(F)c(C(=O)O)c1`, the NMR binding call turned out to be 0.

With `Nc1ccccc1OCc1ccccc1`, the NMR binding call came to 0.

Turning to `O=C(c1ccco1)N1CCN(C(=O)C2CC2)CC1`, the NMR binding call worked out at 0.

Compound `COc1ccc(C(=O)C2CCNCC2)cc1` showed an NMR binding call of 0.

In the case of `Cc1nnc(CN2CCC=C(F)C2)s1`, the NMR binding call came out at 0.

`NC(=O)c1ccc(OCc2ccccc2)cc1` displayed an NMR binding call of 0.

The next experiment deals with SARS-CoV-2 3_SL1+2 RNA. The experiment is described as above. The conditions noted are these: RNA concentration 10 µM; fragment concentration 200 µM; 293 K.
In turn, `CCS(=O)(=O)NCc1ccc2c(c1)OCO2` registered an NMR binding call of 0.

Compound `Nc1ccc(S(=O)(=O)Nc2ccccn2)cc1` came in with an NMR binding call of 0.

For `Cc1cc(C(=O)NC(C)C)on1`, the NMR binding call stood at 0.

For the compound `Cc1ccsc1CNC(C)(C)CO`, the NMR binding call amounted to 0.

For `Cc1nn(Cc2c(C)noc2C)c(=O)s1`, the NMR binding call came to 0.

For the compound `CC(C)NC(=O)c1cc[nH]n1`, the NMR binding call is 0.

Compound `CC(C)NC(=O)N(C)Cc1cnn(C)c1` showed an NMR binding call of 0.

In turn, `CC(C)N1CCCC(CO)C1` (stereo not drawn) came in with an NMR binding call of 0.

For the compound `CC1COCCN1CCN` (stereo not drawn), the NMR binding call is 0.

`CC(C)(O)CNC1CCOCC1` returned an NMR binding call of 0.

Consider `CC(=O)NCC1(c2ccccc2)CCOCC1`, for which the NMR binding call is 0.

For `CNC(=O)c1ccc(S(N)(=O)=O)cc1`, the NMR binding call was 0.

`CN(C)Cc1nc(C2(N)CCCC2)no1`: the NMR binding call stood at 0.

`CC(O)CNCc1c(Cl)cccc1Cl` (stereo not drawn) showed an NMR binding call of 0.

With `O=C(Nc1ccc(O)cc1)N1CCOCC1`, the NMR binding call came to 0.

`CC1CCCN(C(=O)CO)C1` (stereo not drawn) displayed an NMR binding call of 0.

For the compound `CNc1ncc(C(F)(F)F)cc1Cl`, the NMR binding call worked out at 0.

`O=C(NCc1ccco1)NC1CCCCC1` showed an NMR binding call of 0.

`CC(=O)Nc1ccc(CC(N)=O)cc1` displayed an NMR binding call of 0.

`NC(=O)N1CCN(C(=O)c2ccco2)CC1`: the NMR binding call was found to be 0.

In turn, `Cc1cnc(N2CCNCC2)s1.Cl.Cl` had an NMR binding call of 0.

As for `O=C(c1c(F)cccc1F)N1CCCC1`, the NMR binding call is 0.

For `CC(Oc1ccc(-c2ccccc2)cc1)C(=O)O` (stereo not drawn), the NMR binding call amounted to 0.

Compound `Cl.O=C(O)CCN1CCCCC1` yielded an NMR binding call of 0.

`CC(C)n1cc(C(=O)O)nn1`: the NMR binding call amounted to 0.

Take `CN1CCN(c2ncccc2F)CC1=O`: the NMR binding call stood at 0.

As to `COc1cc(C(=O)O)cc(OC)c1OC`, the NMR binding call was determined as 0.

In turn, `Cc1csc(CNC(=O)C2CCC2)n1` registered an NMR binding call of 0.

The compound `CNC(=O)CN1CCNCC1` returned an NMR binding call of 0.

With `Cc1cccc(NC(=O)CN2CCOCC2)c1C`, the NMR binding call was 0.

Take `O=C(Nc1ccc(F)cc1)Nc1ccc(F)cc1`: the NMR binding call stood at 0.

`COc1ccc(C(=O)Nc2ccccc2F)cc1` showed an NMR binding call of 0.

In the case of `O=C(c1c(F)cccc1F)N1CCCCCC1`, the NMR binding call turned out to be 0.

On to `Cc1ccc(NC(=O)C2CCCO2)nc1` (stereo not drawn), for which the NMR binding call is 0.

Consider `CC(=O)Nc1ccc(F)c(C(=O)O)c1`, for which the NMR binding call turned out to be 0.

As for `Nc1ccccc1OCc1ccccc1`, the NMR binding call was 0.

Take `O=C(c1ccco1)N1CCN(C(=O)C2CC2)CC1`: the NMR binding call worked out at 0.

Compound `COc1ccc(C(=O)C2CCNCC2)cc1` came in with an NMR binding call of 0.

The compound `Cc1nnc(CN2CCC=C(F)C2)s1` yielded an NMR binding call of 0.

For the compound `NC(=O)c1ccc(OCc2ccccc2)cc1`, the NMR binding call is 0.

These data come from the supplement of paper PMC8426693.
